Results on 6 molecules are retold here after paper PMC4317163.

Results are given in words; binding and its absence hold for the method and conditions named. Binding seen in cells or lysates may run through a third protein. Some binding calls cover weakened binding; strength is not graded here. For some of these results: Tags and fused reporters may be left off the sequences shown.

Test [1] addresses T1, CP190 (cotransfected in S2 cells) (Drosophila) (UniProt Q24478).
T1 sequence: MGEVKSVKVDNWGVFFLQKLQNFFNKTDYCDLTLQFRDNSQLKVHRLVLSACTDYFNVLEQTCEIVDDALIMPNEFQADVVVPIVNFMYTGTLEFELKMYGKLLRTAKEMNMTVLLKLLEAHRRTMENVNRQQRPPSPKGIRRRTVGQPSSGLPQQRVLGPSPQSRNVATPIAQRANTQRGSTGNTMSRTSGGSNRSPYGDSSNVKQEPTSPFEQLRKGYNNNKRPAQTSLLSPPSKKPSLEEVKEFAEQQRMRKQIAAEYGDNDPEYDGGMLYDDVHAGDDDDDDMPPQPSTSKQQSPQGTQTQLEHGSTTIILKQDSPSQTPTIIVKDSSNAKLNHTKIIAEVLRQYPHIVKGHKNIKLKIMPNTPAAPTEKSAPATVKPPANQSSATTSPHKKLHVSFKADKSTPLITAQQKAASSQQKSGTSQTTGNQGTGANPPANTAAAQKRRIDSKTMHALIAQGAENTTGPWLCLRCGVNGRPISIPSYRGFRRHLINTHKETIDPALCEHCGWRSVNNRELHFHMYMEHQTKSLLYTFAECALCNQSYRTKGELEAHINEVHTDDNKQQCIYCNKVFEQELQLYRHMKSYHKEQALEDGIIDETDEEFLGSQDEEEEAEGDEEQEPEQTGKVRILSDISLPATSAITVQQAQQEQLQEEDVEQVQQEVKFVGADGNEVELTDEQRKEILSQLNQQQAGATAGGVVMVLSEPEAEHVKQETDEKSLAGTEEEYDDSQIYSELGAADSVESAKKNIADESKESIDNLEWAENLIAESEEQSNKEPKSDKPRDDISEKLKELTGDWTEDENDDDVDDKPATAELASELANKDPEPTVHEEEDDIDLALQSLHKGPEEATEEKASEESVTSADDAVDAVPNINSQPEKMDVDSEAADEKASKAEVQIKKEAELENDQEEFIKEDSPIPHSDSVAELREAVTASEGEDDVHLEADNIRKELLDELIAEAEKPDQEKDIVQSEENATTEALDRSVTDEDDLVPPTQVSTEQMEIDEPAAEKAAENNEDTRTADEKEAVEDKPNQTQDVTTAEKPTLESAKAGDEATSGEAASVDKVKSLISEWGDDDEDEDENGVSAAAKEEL
Put plainly: co-IP; nuclear extracts from S2 cells cotransfected with CP190 and 3 × FLAG-Pita/ZIPIC, immunoprecipitated with antibodies against CP190 (nonspecific IgG as negative control), Western blot for FLAG-tagged proteins. A general note: Immunoblotting shows a protein as a band on a membrane.

Test [2] deals with T2, CP190 (endogenous, embryos) (Drosophila (endogenous in embryos)) (UniProt Q24478).
T2 sequence: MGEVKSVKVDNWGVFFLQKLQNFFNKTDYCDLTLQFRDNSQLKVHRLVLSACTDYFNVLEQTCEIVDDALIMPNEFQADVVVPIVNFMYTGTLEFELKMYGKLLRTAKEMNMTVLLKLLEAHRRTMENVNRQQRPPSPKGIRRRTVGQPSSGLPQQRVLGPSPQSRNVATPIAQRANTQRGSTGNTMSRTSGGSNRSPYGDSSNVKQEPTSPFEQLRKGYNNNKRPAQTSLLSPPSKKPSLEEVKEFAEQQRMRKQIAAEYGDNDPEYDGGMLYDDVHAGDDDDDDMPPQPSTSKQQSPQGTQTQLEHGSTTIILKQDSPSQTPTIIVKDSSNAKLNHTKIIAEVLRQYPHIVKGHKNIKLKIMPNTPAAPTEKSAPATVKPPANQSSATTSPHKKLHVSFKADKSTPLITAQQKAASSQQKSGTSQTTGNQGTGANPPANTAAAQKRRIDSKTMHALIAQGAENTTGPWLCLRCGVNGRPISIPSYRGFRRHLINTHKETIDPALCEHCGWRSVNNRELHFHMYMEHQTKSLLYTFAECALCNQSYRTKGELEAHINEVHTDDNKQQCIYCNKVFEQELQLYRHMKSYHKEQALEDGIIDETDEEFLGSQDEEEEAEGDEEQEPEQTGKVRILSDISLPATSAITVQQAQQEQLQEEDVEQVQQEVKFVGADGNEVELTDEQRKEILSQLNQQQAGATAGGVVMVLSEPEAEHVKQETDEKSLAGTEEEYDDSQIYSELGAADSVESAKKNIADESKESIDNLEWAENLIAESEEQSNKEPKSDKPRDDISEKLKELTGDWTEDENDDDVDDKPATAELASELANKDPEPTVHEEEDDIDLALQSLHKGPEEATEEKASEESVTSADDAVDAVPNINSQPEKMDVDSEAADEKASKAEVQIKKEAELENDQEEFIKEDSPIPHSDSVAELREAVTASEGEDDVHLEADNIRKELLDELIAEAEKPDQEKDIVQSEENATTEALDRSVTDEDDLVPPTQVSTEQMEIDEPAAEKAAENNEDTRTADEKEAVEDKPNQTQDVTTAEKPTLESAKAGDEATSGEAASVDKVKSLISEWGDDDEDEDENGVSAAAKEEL
Description: co-IP; nuclear extracts from Drosophila embryos (0-12 h) immunoprecipitated with antibodies against CP190, Pita or ZIPIC (nonspecific IgG as negative control), Western blot for Pita, ZIPIC and CP190.

Test [3] concerns the target T3, GST-Pita[95–209] (Drosophila) (UniProt Q95RQ8).
T3 sequence: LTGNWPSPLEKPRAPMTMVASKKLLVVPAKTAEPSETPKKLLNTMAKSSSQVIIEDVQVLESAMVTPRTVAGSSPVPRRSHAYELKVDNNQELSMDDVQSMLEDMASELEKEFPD
Put plainly: pull-down; 6 × His (Ni-NTA) and GST (glutathione resin) pull-downs: 6 × His-CP190 fragments with GST-tagged Pita or ZIPIC fragments, coexpressed in E. coli BL21; washes with 500 mM NaCl, SDS-PAGE with Coomassie staining, anti-GST immunoblot for the 6 × His pull-down.

Test [4] deals with T4, Pita (endogenous, embryos) (Drosophila (endogenous in embryos)) (UniProt Q95RQ8).
T4 sequence: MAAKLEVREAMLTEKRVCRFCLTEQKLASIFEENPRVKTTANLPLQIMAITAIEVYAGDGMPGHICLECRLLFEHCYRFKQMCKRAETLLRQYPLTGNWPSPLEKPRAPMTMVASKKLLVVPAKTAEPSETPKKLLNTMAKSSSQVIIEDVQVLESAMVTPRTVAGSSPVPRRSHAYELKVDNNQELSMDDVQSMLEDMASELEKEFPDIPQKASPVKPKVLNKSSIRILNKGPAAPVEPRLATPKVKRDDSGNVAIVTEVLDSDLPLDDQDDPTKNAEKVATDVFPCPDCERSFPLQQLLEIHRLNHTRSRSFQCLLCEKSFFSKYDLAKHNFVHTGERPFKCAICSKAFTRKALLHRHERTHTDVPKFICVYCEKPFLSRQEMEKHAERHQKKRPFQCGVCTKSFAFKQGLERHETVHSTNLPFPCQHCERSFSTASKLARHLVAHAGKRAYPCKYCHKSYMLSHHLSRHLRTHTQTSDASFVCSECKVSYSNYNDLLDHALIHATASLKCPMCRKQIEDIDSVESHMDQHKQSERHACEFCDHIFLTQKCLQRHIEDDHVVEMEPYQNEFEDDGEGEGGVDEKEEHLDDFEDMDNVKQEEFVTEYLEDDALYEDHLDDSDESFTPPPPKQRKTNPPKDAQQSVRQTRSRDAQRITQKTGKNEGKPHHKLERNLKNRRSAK
Description: co-IP; nuclear extracts from Drosophila embryos (0-12 h) immunoprecipitated with antibodies against CP190, Pita or ZIPIC (nonspecific IgG as negative control), Western blot for Pita, ZIPIC and CP190.

The target in test [5] is T5, GST-ZIPIC[84–257] (Drosophila) (UniProt Q9VAB8).
T5 sequence: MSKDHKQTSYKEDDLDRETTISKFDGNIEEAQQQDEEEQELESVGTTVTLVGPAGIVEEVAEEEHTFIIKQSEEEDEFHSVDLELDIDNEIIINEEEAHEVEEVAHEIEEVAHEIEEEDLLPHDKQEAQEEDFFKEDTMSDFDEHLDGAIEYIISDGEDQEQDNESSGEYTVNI
Description: pull-down; 6 × His (Ni-NTA) and GST (glutathione resin) pull-downs: 6 × His-CP190 fragments with GST-tagged Pita or ZIPIC fragments, coexpressed in E. coli BL21; washes with 500 mM NaCl, SDS-PAGE with Coomassie staining, anti-GST immunoblot for the 6 × His pull-down.

B1: 3 × FLAG-Pita (protein, UniProt Q95RQ8 1-683)
chain: MAAKLEVREAMLTEKRVCRFCLTEQKLASIFEENPRVKTTANLPLQIMAITAIEVYAGDGMPGHICLECRLLFEHCYRFKQMCKRAETLLRQYPLTGNWPSPLEKPRAPMTMVASKKLLVVPAKTAEPSETPKKLLNTMAKSSSQVIIEDVQVLESAMVTPRTVAGSSPVPRRSHAYELKVDNNQELSMDDVQSMLEDMASELEKEFPDIPQKASPVKPKVLNKSSIRILNKGPAAPVEPRLATPKVKRDDSGNVAIVTEVLDSDLPLDDQDDPTKNAEKVATDVFPCPDCERSFPLQQLLEIHRLNHTRSRSFQCLLCEKSFFSKYDLAKHNFVHTGERPFKCAICSKAFTRKALLHRHERTHTDVPKFICVYCEKPFLSRQEMEKHAERHQKKRPFQCGVCTKSFAFKQGLERHETVHSTNLPFPCQHCERSFSTASKLARHLVAHAGKRAYPCKYCHKSYMLSHHLSRHLRTHTQTSDASFVCSECKVSYSNYNDLLDHALIHATASLKCPMCRKQIEDIDSVESHMDQHKQSERHACEFCDHIFLTQKCLQRHIEDDHVVEMEPYQNEFEDDGEGEGGVDEKEEHLDDFEDMDNVKQEEFVTEYLEDDALYEDHLDDSDESFTPPPPKQRKTNPPKDAQQSVRQTRSRDAQRITQKTGKNEGKPHHKLERNLKNRRSAK
For B1, the binding result in test [1] is reported as “binds”.

B2: Pita (endogenous, embryos) (protein, UniProt Q95RQ8 1-683)
chain: MAAKLEVREAMLTEKRVCRFCLTEQKLASIFEENPRVKTTANLPLQIMAITAIEVYAGDGMPGHICLECRLLFEHCYRFKQMCKRAETLLRQYPLTGNWPSPLEKPRAPMTMVASKKLLVVPAKTAEPSETPKKLLNTMAKSSSQVIIEDVQVLESAMVTPRTVAGSSPVPRRSHAYELKVDNNQELSMDDVQSMLEDMASELEKEFPDIPQKASPVKPKVLNKSSIRILNKGPAAPVEPRLATPKVKRDDSGNVAIVTEVLDSDLPLDDQDDPTKNAEKVATDVFPCPDCERSFPLQQLLEIHRLNHTRSRSFQCLLCEKSFFSKYDLAKHNFVHTGERPFKCAICSKAFTRKALLHRHERTHTDVPKFICVYCEKPFLSRQEMEKHAERHQKKRPFQCGVCTKSFAFKQGLERHETVHSTNLPFPCQHCERSFSTASKLARHLVAHAGKRAYPCKYCHKSYMLSHHLSRHLRTHTQTSDASFVCSECKVSYSNYNDLLDHALIHATASLKCPMCRKQIEDIDSVESHMDQHKQSERHACEFCDHIFLTQKCLQRHIEDDHVVEMEPYQNEFEDDGEGEGGVDEKEEHLDDFEDMDNVKQEEFVTEYLEDDALYEDHLDDSDESFTPPPPKQRKTNPPKDAQQSVRQTRSRDAQRITQKTGKNEGKPHHKLERNLKNRRSAK
In the case of B2, the binding entry in test [2] is given as “binds”.

B3: 6 × His-CP190[1–126] (domain or fragment, UniProt Q24478 1-126)
chain: MGEVKSVKVDNWGVFFLQKLQNFFNKTDYCDLTLQFRDNSQLKVHRLVLSACTDYFNVLEQTCEIVDDALIMPNEFQADVVVPIVNFMYTGTLEFELKMYGKLLRTAKEMNMTVLLKLLEAHRRTM
As to B3, the binding result in test [3] is “binds”.

B4: 3 × FLAG-ZIPIC (protein, UniProt Q9VAB8 1-457)
chain: MNCCICQFSVRVPKDIHTDTVGHPPVLISELVLQCTRGTNYVLTEESSTICKKCCEKLARYHKSIQIARKLRGEILELIHSPYMSKDHKQTSYKEDDLDRETTISKFDGNIEEAQQQDEEEQELESVGTTVTLVGPAGIVEEVAEEEHTFIIKQSEEEDEFHSVDLELDIDNEIIINEEEAHEVEEVAHEIEEVAHEIEEEDLLPHDKQEAQEEDFFKEDTMSDFDEHLDGAIEYIISDGEDQEQDNESSGEYTVNIQCPSCPEKFSSRRAYNVHTKREHFPGYVCDQCGKTLQSYSGFIGHLQNHEPVKQFACPVCPERFSRKFRLKHHMAWHSGETPYQCDVCSKRFVHKVALYKHKMIHDSETKRLECQVCGFKTRTKAHLERHMRSHTGDKPFACPVCNKRFSQMYNMKAHLREHESPGTNRHRRFHCSKCTHTFINEQNYDAHVQRDDCTPV
Consider B4, for which, in test [1], the binding entry is “binds”.

B5: ZIPIC (endogenous, embryos) (protein, UniProt Q9VAB8 1-457)
chain: MNCCICQFSVRVPKDIHTDTVGHPPVLISELVLQCTRGTNYVLTEESSTICKKCCEKLARYHKSIQIARKLRGEILELIHSPYMSKDHKQTSYKEDDLDRETTISKFDGNIEEAQQQDEEEQELESVGTTVTLVGPAGIVEEVAEEEHTFIIKQSEEEDEFHSVDLELDIDNEIIINEEEAHEVEEVAHEIEEVAHEIEEEDLLPHDKQEAQEEDFFKEDTMSDFDEHLDGAIEYIISDGEDQEQDNESSGEYTVNIQCPSCPEKFSSRRAYNVHTKREHFPGYVCDQCGKTLQSYSGFIGHLQNHEPVKQFACPVCPERFSRKFRLKHHMAWHSGETPYQCDVCSKRFVHKVALYKHKMIHDSETKRLECQVCGFKTRTKAHLERHMRSHTGDKPFACPVCNKRFSQMYNMKAHLREHESPGTNRHRRFHCSKCTHTFINEQNYDAHVQRDDCTPV
As for B5, the binding entry in test [4] was “binds weakly”; in test [2] it was “binds”.

B6: 6 × His-CP190[245–599] (domain or fragment, UniProt Q24478 245-599)
chain: KEFAEQQRMRKQIAAEYGDNDPEYDGGMLYDDVHAGDDDDDDMPPQPSTSKQQSPQGTQTQLEHGSTTIILKQDSPSQTPTIIVKDSSNAKLNHTKIIAEVLRQYPHIVKGHKNIKLKIMPNTPAAPTEKSAPATVKPPANQSSATTSPHKKLHVSFKADKSTPLITAQQKAASSQQKSGTSQTTGNQGTGANPPANTAAAQKRRIDSKTMHALIAQGAENTTGPWLCLRCGVNGRPISIPSYRGFRRHLINTHKETIDPALCEHCGWRSVNNRELHFHMYMEHQTKSLLYTFAECALCNQSYRTKGELEAHINEVHTDDNKQQCIYCNKVFEQELQLYRHMKSYHKEQALEDGI
For B6, the binding entry in test [5] is on record as “binds”.
